These are yes or no findings as the source states them, for the method shown.
Biological target: T1, Peptide of the cytoplasmic domain of human tetherin, residues 1–21, C9S, biotinylated (human)
T1 sequence (peptide, biotin (maleimide-PEG2-Biotin) at C20): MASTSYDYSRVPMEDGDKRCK
Experiment: SPR; BIAcore 3000, 25°C, PBS with 5 mM DTT; biotinylated tetherin peptides captured (3,000 RU) on neutravidin-coated CM5 chip, Nef proteins flowed at 5 µl/min; equilibrium analysis, apparent Kd; both purified

## Recombinant SIVmac239 Nef core domain, residues 96–237 (domain or fragment)
  binding: no binding
